# Experimental data taken from patent publication US6365364.
# Amino acid sequences for entries named in this document (tags omitted). A change or cut given only in a name is not applied to a line headed by its entry. Chains listed by the source or under a name are the forms on record and can include a tag or linker.
# UniProt P00747: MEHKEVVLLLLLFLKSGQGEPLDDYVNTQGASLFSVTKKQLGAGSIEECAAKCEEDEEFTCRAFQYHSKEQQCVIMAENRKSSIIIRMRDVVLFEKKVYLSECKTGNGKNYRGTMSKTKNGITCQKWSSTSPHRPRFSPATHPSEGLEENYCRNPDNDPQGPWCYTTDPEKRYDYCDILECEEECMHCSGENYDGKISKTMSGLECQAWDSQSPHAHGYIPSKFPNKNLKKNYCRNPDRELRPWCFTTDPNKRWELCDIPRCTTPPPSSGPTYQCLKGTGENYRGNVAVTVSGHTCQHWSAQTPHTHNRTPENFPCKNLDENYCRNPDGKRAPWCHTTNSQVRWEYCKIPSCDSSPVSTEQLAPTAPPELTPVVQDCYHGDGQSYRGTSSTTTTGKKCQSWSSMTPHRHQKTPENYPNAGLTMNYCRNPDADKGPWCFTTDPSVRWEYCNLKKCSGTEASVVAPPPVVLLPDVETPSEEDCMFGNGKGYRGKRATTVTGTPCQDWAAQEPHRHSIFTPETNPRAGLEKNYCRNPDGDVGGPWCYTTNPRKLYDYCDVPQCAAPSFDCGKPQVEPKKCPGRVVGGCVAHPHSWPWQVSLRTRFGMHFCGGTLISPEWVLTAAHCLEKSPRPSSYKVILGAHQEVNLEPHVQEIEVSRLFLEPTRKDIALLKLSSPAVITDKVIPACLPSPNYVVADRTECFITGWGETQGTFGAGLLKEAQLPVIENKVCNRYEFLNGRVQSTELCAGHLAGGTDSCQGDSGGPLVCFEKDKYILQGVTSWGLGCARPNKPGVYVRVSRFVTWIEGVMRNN
# Lys78-plasminogen (S741C) (P00747, form named): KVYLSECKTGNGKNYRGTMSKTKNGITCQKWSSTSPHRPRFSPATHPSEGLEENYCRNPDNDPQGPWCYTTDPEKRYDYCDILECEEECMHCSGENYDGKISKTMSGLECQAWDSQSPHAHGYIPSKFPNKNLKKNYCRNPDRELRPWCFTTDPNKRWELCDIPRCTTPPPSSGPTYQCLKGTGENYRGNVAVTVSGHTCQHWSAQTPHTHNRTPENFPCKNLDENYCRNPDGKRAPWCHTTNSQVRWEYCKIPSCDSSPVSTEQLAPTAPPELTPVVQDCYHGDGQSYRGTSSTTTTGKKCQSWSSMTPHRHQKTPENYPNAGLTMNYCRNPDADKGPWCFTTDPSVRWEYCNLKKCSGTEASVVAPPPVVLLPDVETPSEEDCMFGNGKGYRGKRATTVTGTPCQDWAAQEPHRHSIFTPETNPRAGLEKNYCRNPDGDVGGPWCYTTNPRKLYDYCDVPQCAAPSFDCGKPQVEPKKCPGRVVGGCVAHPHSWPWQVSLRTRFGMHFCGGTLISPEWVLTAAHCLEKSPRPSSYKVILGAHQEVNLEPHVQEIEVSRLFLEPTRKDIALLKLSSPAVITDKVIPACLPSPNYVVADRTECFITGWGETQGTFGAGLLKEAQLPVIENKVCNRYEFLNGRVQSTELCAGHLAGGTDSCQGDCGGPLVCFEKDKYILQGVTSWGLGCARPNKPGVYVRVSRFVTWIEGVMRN
# Results are given in words; binding and its absence hold for the method and conditions named. Some results given as binding are weak or reduced against the parent protein; the word gives no strength.
# Key:
# [1] = biological target: T1, bovine bone osteonectin (bovine) (UniProt P13213); assay: TIRFS competition; 2 µM peptide with 1 µM osteonectin against 100 nM FITC-glu-plasminogen
# T1 sequence (looked up): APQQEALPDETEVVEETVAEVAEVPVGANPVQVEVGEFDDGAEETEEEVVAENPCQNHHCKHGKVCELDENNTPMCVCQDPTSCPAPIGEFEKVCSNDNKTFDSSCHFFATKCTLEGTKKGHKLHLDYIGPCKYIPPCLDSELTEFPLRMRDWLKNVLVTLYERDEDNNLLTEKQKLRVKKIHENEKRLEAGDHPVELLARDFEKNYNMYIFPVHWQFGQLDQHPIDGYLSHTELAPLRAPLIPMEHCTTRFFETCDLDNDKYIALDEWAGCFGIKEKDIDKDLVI
# [2] = biological target: T1, bovine bone osteonectin (bovine); assay: TIRFS competition
# [3] = biological target: T1, bovine bone osteonectin (bovine); assay: TIRFS
# [4] = biological target: T1, bovine bone osteonectin (bovine); assay: TIRFS; plasmin added to FITC-glu-plasminogen and osteonectin on collagen type V
# [5] = biological target: T1, bovine bone osteonectin (bovine); assay: TIRFS; 100 nM plasminogen (S741C), 2 µM bone osteonectin, collagen type V well
Substance,binding [1],binding [2],binding [3],binding [4],binding [5]
kringles 1-3 peptide (residues 79-353) from elastase digestion of human glu-plasminogen (from UniProt P00747 98-372),binds,binds,,,
"Lys78-plasminogen from plasma-derived glu-plasminogen, fluorescein labeled (from UniProt P00747 97-809)",,,binds,binds,
Lys78-plasminogen (S741C) (from UniProt P00747 97-809),,,binds,,binds
kringle 4 peptide (residues 354-439) from elastase digestion of human glu-plasminogen (from UniProt P00747 373-458),binds,binds,,,
